# Reference: PubChem BioAssay AID720504 (National Center for Advancing Translational Sciences (NCATS), 2013)
# Amino acid sequences for entries named in this document (tags omitted).
# UniProt P53350, whole entry, looked up: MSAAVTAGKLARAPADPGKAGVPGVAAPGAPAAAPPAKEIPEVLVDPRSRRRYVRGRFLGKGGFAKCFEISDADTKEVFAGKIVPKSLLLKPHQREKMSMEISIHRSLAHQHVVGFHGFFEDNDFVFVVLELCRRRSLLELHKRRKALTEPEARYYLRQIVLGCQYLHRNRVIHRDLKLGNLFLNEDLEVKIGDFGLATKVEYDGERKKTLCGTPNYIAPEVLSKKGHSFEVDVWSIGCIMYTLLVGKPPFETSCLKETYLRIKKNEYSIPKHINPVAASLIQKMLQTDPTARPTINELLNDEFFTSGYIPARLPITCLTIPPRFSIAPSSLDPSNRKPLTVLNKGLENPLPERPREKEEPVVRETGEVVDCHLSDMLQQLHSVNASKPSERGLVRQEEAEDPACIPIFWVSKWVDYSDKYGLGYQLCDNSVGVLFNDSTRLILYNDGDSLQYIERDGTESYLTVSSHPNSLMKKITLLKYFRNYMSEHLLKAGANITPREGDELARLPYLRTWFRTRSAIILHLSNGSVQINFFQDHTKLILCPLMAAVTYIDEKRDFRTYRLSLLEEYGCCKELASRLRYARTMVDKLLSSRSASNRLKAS
# Out of some 360,000 compounds screened, about 10,000 (2.8%) were called active. The shares of active, inactive and inconclusive entries below differ from those in the screen. The call rests on the fitted dose curve; in most records, active means well fitted inhibition curve with a large enough effect; inconclusive means small, poorly fitted or top-dose-only effect; inactive means flat fitted curve, though single readings scatter. Potencies of inconclusive entries are doubtful fits and often do not repeat.
# Target: Serine/threonine-protein kinase PLK1 (Homo sapiens) (UniProt P53350)
# Experiment: qHTS for Inhibitors of PLK1-PDB (polo-like kinase 1 - polo-box domain): Primary Screen; further: nearly all actives have a fitted effect of over 65% in size; on max response, negative = inhibition: series mostly up to about 57 µM
# Settings: Plk1 PBD binding of FITC phosphopeptide, fluorescence polarization
# On the % scale 0 is the no-effect control and ±100 the full control effect; potency means the concentration at half of the fitted maximal effect.
Structure (SMILES),"max response, negative = inhibition",Potency
Cc1cccc(NC(=O)c2cnn(-c3ccc(F)cc3)c2C2CCNCC2)c1C,inactive: -3.64%,–
O=[N+]([O-])c1cc([N+](=O)[O-])c(Oc2ccc(Br)cc2Br)cc1NN1CCCCC1,–,"inconclusive: 29.9 µM [inhibitor, partial curve]"
CC(=O)c1ccc(OCc2nnn(CC(=O)O)c2-c2ccccc2)cc1,inactive: -9.33%,–
Cc1cc(C)nc(NS(=O)(=O)c2ccc(N=Cc3c(C)[nH]n(-c4ccccc4)c3=O)cc2)n1,–,active: 26.7 µM
Cc1cccc(OCC(=O)NCC(C)(C)N2CCOCC2)c1,inactive: -1.54%,–
CC(C)c1nnc(NC(=O)CCS(=O)(=O)c2nc(-c3cccs3)cc(C(F)(F)F)n2)s1,–,"inconclusive: 29.9 µM [inhibitor, partial curve]"
COc1cc2c(C(=O)N3CCOCC3)c(CSc3ccccc3)n(C)c2cc1Br,–,"inconclusive: 37.7 µM [inhibitor, partial curve]"
CCOc1ccc(-c2ncncc2-c2ccccc2OC)c(O)c1,–,"inconclusive: 29.9 µM [inhibitor, single point]"
Cc1cc(C)n2ncc(C(=O)Nc3ccc(Cl)c(Cl)c3)c2n1,–,"inconclusive: 21.2 µM [inhibitor, partial curve]"
Cc1ccc([C@H]2C(C(=O)O)=CC[C@@H](c3ccc(C)cc3)N2S(=O)(=O)c2ccccc2C)cc1,–,"inconclusive: 29.9 µM [inhibitor, single point]"
COc1ccc2[nH]c3c(c2c1)CCN1C(=O)C(CC(=O)NCc2ccco2)C[C@H](C(=O)N(C(C)C)C(C)C)[C@@]31C (stereo partly specified),–,"inconclusive: 26.7 µM [inhibitor, single point]"
CC(C)C[C@H]1CN=C(Nc2ccccc2)N1CC1CCC1,–,"inconclusive: 23.8 µM [inhibitor, single point]"
O=C(c1cccnc1Cl)N1CCOCC1,–,active: 18.9 µM
CC(C)[C@H](NC(=O)CCCn1nnc2ccccc2c1=O)C(=O)O,inactive: -9.5%,–
O=[N+]([O-])c1cccc(/C=N/Nc2nc(NCc3ccccc3)nc(N3CCOCC3)n2)c1O,inactive: -9.46%,–
CC(C)c1cc(=O)oc2c3c4c(cc12)CCCN4CCC3,–,"inconclusive: 21.2 µM [inhibitor, partial curve]"
COc1nccnc1NS(=O)(=O)c1ccc(NC(=S)NC(=O)c2ccc(F)cc2)cc1,inactive: -10.3%,–
Fc1cc2[nH]c(=S)[nH]c2c(Br)c1N1CCSCC1,–,active: 26.7 µM
O=c1oc(-c2ccccc2)nc2sc3c(c12)CCC3,inactive: -13.2%,–
COc1ccc(NC(=O)Nc2c(O)ccc3ccccc23)cc1,–,"inconclusive: 26.7 µM [inhibitor, partial curve]"
O=C(O)c1ccc2c(c1)NC(=O)C(N1CCCC1)S2 (stereo unspecified),–,"inconclusive: 29.9 µM [inhibitor, partial curve]"
Cc1ccc2[nH]c(C(=O)O)c(-c3ccccc3)c2c1,–,"inconclusive: 37.7 µM [inhibitor, single point]"
Cc1nnsc1C(=O)NC1CCCCC1,inactive: -4.31%,–

Structure (SMILES),"max response, negative = inhibition",Potency
Cc1ccc(-c2nnc(-c3ccc(NC(=O)c4ccco4)cc3)o2)cc1,inactive: -7.81%,–
CC(C)CC(=O)NNC(=S)Nc1ccc(S(N)(=O)=O)cc1,–,active: 23.8 µM
CC(C)Cc1nnc(NC(=O)CCS(=O)(=O)c2ccc(Cl)cc2)s1,–,"inconclusive: 18.9 µM [inhibitor, partial curve]"
N=C1/C(=C/c2ccc(Br)o2)C(=O)N=C2SC(CC(=O)N3CCCC3)=NN12,–,"inconclusive: 26.7 µM [inhibitor, single point]"
CC(C)C(=O)Nc1ccc(NC(=O)c2cccc3c(Br)cccc23)cc1,–,active: 26.7 µM
CN(C(=O)COC(=O)c1cc(-c2ccco2)nc2ccccc12)C1CCS(=O)(=O)C1 (stereo unspecified),–,active: 18.9 µM
c1ccc2oc(C3=NNC(=NC4CC4)SC3)cc2c1,–,"inconclusive: 29.9 µM [inhibitor, single point]"
C=CCn1c(C)cc(C(=O)CSc2nc3ccccc3[nH]2)c1C,inactive: -2.91%,–
COc1ccccc1NC(=O)CCN1C(=O)/C(=C/c2cc(OC)c(OC)c(OC)c2)SC1=S,inactive: -4.14%,–
O=C(O)CCN1C(=O)c2ccc(NC(=O)CSc3ccccc3)cc2C1=O,–,active: 26.7 µM
Cc1ccc(-c2ccnc3nc(-n4cccc4)nn23)o1,–,active: 4.74 µM
COc1ccc(C(=O)CN2CCN(S(=O)(=O)c3cccc([N+](=O)[O-])c3)CC2)cc1,inactive: 1.12%,–
CCCOc1ccc(-c2cc(C(F)(F)F)c(C#N)c(SCC(=O)O)n2)cc1,–,"inconclusive: 37.7 µM [inhibitor, single point]"
Cc1cc(C)cc(NS(=O)(=O)c2ccc3c(c2)C(C)(C)C(=O)N3C)c1,–,active: 26.7 µM
COc1ccc2c(c1)OC[C@H]1[C@H]2N2C(=O)CN(CC3CCCO3)C(=O)[C@@]2(C)[C@H]1c1ccccc1 (stereo partly specified),inactive: -6.37%,–
O=C(O)/C=C\C(=O)NC1CCCCC1,–,"inconclusive: 18.9 µM [inhibitor, partial curve]"
Fc1ccc(-c2oncc2-c2nnnn2-c2ccccc2)cc1F,inactive: -3.21%,–
COc1ccc(OC)c(NC(=S)NCc2ccc(S(N)(=O)=O)cc2)c1,–,"inconclusive: 29.9 µM [inhibitor, partial curve]"
Cc1cc(C)cc(NC(=S)/C(=C(\[O-])c2ccc(Cl)s2)[n+]2cccc(C)c2)c1,–,"inconclusive: 18.9 µM [inhibitor, partial curve]"
O=C(O)C1=CC[C@@H](c2ccc(Cl)cc2)N(S(=O)(=O)c2ccc(Cl)cc2)[C@H]1c1ccccc1,–,"inconclusive: 23.8 µM [inhibitor, single point]"
CC(=S)c1c(C)cc2cc(C)ccn12,–,"inconclusive: 26.7 µM [inhibitor, single point]"
CCOC(=O)C(C(=O)OCC)C(C(=O)OCC)N1CCOCC1 (stereo unspecified),–,active: 23.8 µM
Cc1ccc([C@H]2C(C#N)=C(N)Oc3cc(C)oc(=O)c32)o1,–,"inconclusive: 26.7 µM [inhibitor, single point]"
CCC1(C)Cc2c(C#N)c(N)n(N)c(=S)c2CO1 (stereo unspecified),–,active: 26.7 µM

Structure (SMILES),"max response, negative = inhibition",Potency
CC(C)(C)c1ccc(C(=O)N2CCN(S(=O)(=O)c3ccc(Br)s3)CC2)cc1,inactive: -2.27%,–
CCOC(=O)c1cnc(SCCN2CCOCC2)nc1N,–,"inconclusive: 18.9 µM [inhibitor, partial curve]"
COc1cc(NC(=O)c2ccccc2NS(=O)(=O)c2ccc(Cl)s2)cc(OC)c1,–,"inconclusive: 21.2 µM [inhibitor, single point]"
COc1cccc(-c2csc(NC(C)=O)n2)c1,–,"inconclusive: 26.7 µM [inhibitor, partial curve]"
CC1(C)CC(=O)c2cc3c(N)c(C(=O)NCc4ccccc4)sc3nc2C1,–,"inconclusive: 29.9 µM [inhibitor, single point]"
O=C(NCC1CCCO1)C1CC(c2ccc(Cl)c(Cl)c2)=NO1 (stereo unspecified),–,"inconclusive: 37.7 µM [inhibitor, single point]"
CC1C(=O)N(Cc2ccc([N+](=O)[O-])cc2)c2ccccc2N1C(=O)c1c(F)cccc1F (stereo unspecified),inconclusive: -17.3% [inhibitor],–
Cc1c(C(=O)Nc2nonc2-c2ccc(F)cc2)oc2ccc(F)cc12,–,active: 29.9 µM
CCOC(=O)C(C(=O)Nc1ccccn1)C1CCCCC1 (stereo unspecified),inactive: -9.33%,–
CC(C)n1cc(CN2CCCC(CO)(Cc3cccc(Cl)c3)C2)cn1 (stereo unspecified),–,"inconclusive: 37.7 µM [inhibitor, single point]"
Cc1c(C(=O)N/N=C/c2ccc(-c3ccccc3[N+](=O)[O-])o2)sc(N)c1C#N,–,"inconclusive: 37.7 µM [inhibitor, single point]"
CCOC(=O)N1CCN(C(=O)CCCn2c(=S)[nH]c3ccccc3c2=O)CC1,inactive: -13.2%,–
Cc1ccc(/C=N/N=C2/NC(=O)C(CC(=O)Nc3ccccc3)S2)o1 (stereo unspecified),–,"inconclusive: 23.8 µM [inhibitor, partial curve]"
COc1nc(N(C)C)nc(N(OC)S(=O)(=O)c2ccccc2Cl)n1,–,"inconclusive: 26.7 µM [inhibitor, partial curve]"
O=C(O)c1ccc(-n2nnnc2SCc2ccccc2F)cc1,inconclusive: -30.7% [inhibitor],–
O=C(N/N=C/c1coc2ccccc2c1=O)c1cc(Br)c(O)c(Br)c1,–,"inconclusive: 26.7 µM [inhibitor, single point]"
C=CCn1c(NS(=O)(=O)c2ccccc2)c(S(=O)(=O)c2ccc(C)cc2)c2nc3ccccc3nc21,–,"inconclusive: 23.8 µM [inhibitor, partial curve]"
Fc1ccc(CNCC2CCCO2)cc1 (stereo unspecified),–,"inconclusive: 3.36 µM [inhibitor, partial curve]"
O=C(NC1CCCCC1)C(c1ccccc1)n1c(=O)c(-c2ccco2)nc2ccccc21 (stereo unspecified),–,"inconclusive: 21.2 µM [inhibitor, single point]"
COC(=O)C(C)(C)c1cccnc1C#N,inactive: -12.9%,–
O=C(/C=C/c1ccc(Cl)c([N+](=O)[O-])c1)Nc1ccc(N2CCCC2)c(Cl)c1,inactive: 1.89%,–
N/C(COc1cccc(Cl)c1)=N\O,inactive: -1.79%,–
NS(=O)(=O)c1ccc(CNC(=S)NC2CC2)cc1,–,"inconclusive: 29.9 µM [inhibitor, single point]"

# Record cards (already shown).
# `O=C(NCC1CCCO1)C1CC(c2ccc(Cl)c(Cl)c2)=NO1` (stereo unspecified) as listed: Potency: inconclusive: 37.7 µM [inhibitor, single point]
# `COC(=O)C(C)(C)c1cccnc1C#N` as listed: max response, negative = inhibition: inactive: -12.9%

# 2 entries drawn at random from those above, as already listed:
Structure (SMILES),"max response, negative = inhibition",Potency
CC(C)n1cc(CN2CCCC(CO)(Cc3cccc(Cl)c3)C2)cn1 (stereo unspecified),–,"inconclusive: 37.7 µM [inhibitor, single point]"
Cc1c(C(=O)Nc2nonc2-c2ccc(F)cc2)oc2ccc(F)cc12,–,active: 29.9 µM
